The list shows only some results of the screen, not a fair sample: it gathers tests that were run many times, whatever their T/C, doses with no T/C, and many T/C values between a quarter and a half above the control. Other doses and runs of a compound stand elsewhere. T/C: endpoint of the treated group in % of that of the vehicle group. Some entries give survivors of the animals treated and no T/C: the source files T/C as zero there, which appears to mark a toxic dose or a test without result, not a measured value. Some doses without a T/C left all or most animals alive at the check, yet need not have been tolerated: the source hardly ever lists a survival T/C far under the control, and the zero likely stands for such cases as well. Survivors were counted at the toxicity check, usually on the fifth day, unless a day is given; later deaths do not show. Schedule codes are those of the source, taken here to give the interval after Q, in days (D) or hours (H), and the number of doses after X. Some entries hold several experiments; the results are listed from low to high. Where survival is the endpoint, the PubChem record calls one and a half times the control and up active, and a quarter to a half above the control has no call in these data; cut-offs in other NCI protocols can differ. Some T/C values carry the count of animals alive at the toxicity check (mostly the fifth day); without a count, all were alive then.
System: nude mice, LOX melanoma ip, survival T/C
Experiment: NCI In Vivo Anticancer Drug Screen. Data for tumor model Human Amelanotic Melanoma (LOX) (intraperitoneal) in NU/NU BALB/C (nude) mice
Details: T/C endpoint: median survival time, higher T/C = longer survival
Description: The antitumor activity of compounds was measured in mice bearing transplantable tumors. Survival or tumor size were measured and the results are expressed as the measurement made in the treated group (T) divided by the measurement made in the vehicle treated control group (C). The tumor model used in this assay is Human Amelanotic Melanoma (LOX) (intraperitoneal) in NU/NU BALB/C (nude) mice

[1] = dose: 50.0 mg/kg/injection, schedule: Q04DX003 (ip), vehicle: saline with Tween-80
[2] = dose: 100.0 mg/kg/injection, schedule: Q04DX003 (ip), vehicle: saline with Tween-80
[3] = dose: 1200.0 mg/kg/injection, schedule: Q04DX003 (ip), vehicle: saline with Tween-80
[4] = dose: 200.0 mg/kg/injection, schedule: Q04DX003 (ip), vehicle: saline with Tween-80
[5] = dose: 400.0 mg/kg/injection, schedule: Q04DX003 (ip), vehicle: saline with Tween-80
[6] = dose: 400.0 mg/kg/injection, schedule: Q04DX003 (ip), vehicle: water
[7] = dose: 100.0 mg/kg/injection, schedule: Q04DX003 (ip), vehicle: water

SMILES: COC12[C@@H]3N[C@@H]3CN1C1=C(C(=O)C(NCCSSCCNC3=C(C)C(=O)C4=C(C3=O)C(COC(N)=O)[C@]3(OC)C5N[C@@H]5CN43)=C(C)C1=O)[C@@H]2COC(N)=O (stereo partly specified)
- T/C (dose: 0.78 mg/kg/injection, schedule: Q04DX003 (ip), vehicle: DMSO): 127 % of control
- T/C (dose: 3.13 mg/kg/injection, schedule: Q04DX003 (ip), vehicle: DMSO): 132 % of control
- T/C (dose: 6.25 mg/kg/injection, schedule: Q04DX003 (ip), vehicle: DMSO): 132 % of control

SMILES: CCC1OC(OC)C=CC1=O (stereo unspecified)
- survivor count (dose: 200.0 mg/kg/injection, schedule: Q04DX003 (ip), vehicle: suspension in saline): 0 of 6 on day 10
- survivor count (dose: 400.0 mg/kg/injection, schedule: Q04DX003 (ip), vehicle: suspension in saline): 0 of 6 on day 10

SMILES: CCCCN1C(=O)N(c2ccc(OCC)cc2)C2N(CCCC)C1C(C)(C)C2(C)C (stereo unspecified)
- survivor count (dose: 120.0 mg/kg/injection, schedule: Q04DX003 (ip), vehicle: saline with Tween-80): 6 of 6 on day 10
- survivor count (dose: 240.0 mg/kg/injection, schedule: Q04DX003 (ip), vehicle: saline with Tween-80): 0 of 6 on day 10
- survivor count (dose: 480.0 mg/kg/injection, schedule: Q04DX003 (ip), vehicle: saline with Tween-80): 0 of 6 on day 10
- survivor count (dose: 960.0 mg/kg/injection, schedule: Q04DX003 (ip), vehicle: saline with Tween-80): 0 of 6 on day 10

SMILES: COC1=CCC23C(=O)C=CC(=O)C2(C1)C(=O)c1ccccc1C3=O (stereo unspecified)
- survivor count [1]: 2 of 6 on day 10
- survivor count [2]: 0 of 6 on day 10

SMILES: O=C(O)Cc1cccc(=O)c(O)c1C(=O)O
- survivor count (dose: 300.0 mg/kg/injection, schedule: Q04DX003 (ip), vehicle: saline with Tween-80): 6 of 6 on day 10
- survivor count (dose: 600.0 mg/kg/injection, schedule: Q04DX003 (ip), vehicle: saline with Tween-80): 0 of 6 on day 10
- survivor count [3]: 0 of 6 on day 10

SMILES: COc1ccc2[nH]c3ccc4cc[n+](CCN5CCC(C6CCN(CC[n+]7ccc8ccc9[nH]c%10ccc(OC)cc%10c9c8c7)CC6)CC5)cc4c3c2c1
- T/C (dose: 8.0 mg/kg/injection, schedule: Q04DX003 (ip), vehicle: water): 149 % of control
- survivor count (dose: 63.3 mg/kg/injection, schedule: Q04DX003 (ip), vehicle: water): 1 of 5 on day 10
- survivor count (dose: 64.0 mg/kg/injection, schedule: Q04DX003 (ip), vehicle: water): 0 of 6 on day 10
- survivor count (dose: 105.6 mg/kg/injection, schedule: Q04DX003 (ip), vehicle: water): 0 of 5 on day 10
- survivor count (dose: 106.67 mg/kg/injection, schedule: Q04DX003 (ip), vehicle: water): 0 of 6 on day 10

SMILES: CC1/C=C/C=C/CC/C=C/C=C/C=C/C=C/C(OC2OC(C)C(O)C(N)C2O)CC2OC(CC(O)C(O)CCC(O)CC(O)CC(O)CC(=O)OC(C)C(C)C1O)CC(O)C2C(=O)O (stereo unspecified)
- survivor count [4]: 3 of 6 on day 10
- survivor count [5]: 1 of 6 on day 10

SMILES: N#Cc1c(-c2ccc(F)cc2)c(-c2ccc(F)cc2)nn(CCO)c1=O
- T/C (dose: 200.0 mg/kg/injection, schedule: Q04DX003 (ip), vehicle: distilled water + Tween-80): 128 % of control

SMILES: COc1cc(NS(C)(=O)=O)ccc1Nc1c2ccccc2nc2ccccc12
- T/C (dose: 10.0 mg/kg/injection, schedule: Q04DX003 (ip), vehicle: other): 126 % of control
- survivor count (dose: 20.0 mg/kg/injection, schedule: Q04DX003 (ip), vehicle: other): 0 of 6 on day 10
- survivor count (dose: 40.0 mg/kg/injection, schedule: Q04DX003 (ip), vehicle: other): 0 of 6 on day 10

SMILES: Nc1ccc2ccc(NS(=O)(=O)N3CCCCC3)cc2c1
- T/C (dose: 75.0 mg/kg/injection, schedule: Q04DX003 (ip), vehicle: saline with Tween-80): 144 % of control
- T/C (dose: 150.0 mg/kg/injection, schedule: Q04DX003 (ip), vehicle: saline with Tween-80): 125 % of control
- survivor count [3]: 0 of 6 on day 10

SMILES: CN(C)/N=N/c1nc[nH]c1C(N)=O
- T/C (dose: 100.0 mg/kg/injection, schedule: Q04DX003 (ip), vehicle: Klucel (hydroxypropylcellulose) (HPC)): 133 % of control
- T/C (dose: 150.0 mg/kg/injection, schedule: Q04DX003 (ip), vehicle: Klucel (hydroxypropylcellulose) (HPC)): 129 % of control
- T/C (dose: 225.0 mg/kg/injection, schedule: Q04DX003 (ip), vehicle: Klucel (hydroxypropylcellulose) (HPC)): 147 % of control

SMILES: CN(C)CCCN=c1c2ccccc2n(C)c2[nH]c(=O)n(C)c(=O)c12
- T/C (dose: 25.0 mg/kg/injection, schedule: Q04DX003 (ip), vehicle: saline): 132 % of control
- survivor count (dose: 100.0 mg/kg/injection, schedule: Q04DX003 (ip), vehicle: saline): 0 of 6 on day 10
- survivor count (dose: 200.0 mg/kg/injection, schedule: Q04DX003 (ip), vehicle: saline): 0 of 6 on day 10

SMILES: CC(=O)C[n+]1ccccc1Sc1ccc(Cl)cc1
- survivor count (dose: 25.0 mg/kg/injection, schedule: Q04DX003 (ip), vehicle: saline with Tween-80): 6 of 6 on day 10
- survivor count [1]: 5 of 6 on day 10
- survivor count [2]: 6 of 6 on day 10
- survivor count [4]: 0 of 6 on day 10
- survivor count [5]: 0 of 6 on day 10

SMILES: O=S(=O)(O)c1cc(N=C=S)ccc1/C=C/c1ccc(N=C=S)cc1S(=O)(=O)O
- survivor count (dose: 1.88 mg/kg/injection, schedule: Q04DX003 (ip), vehicle: saline): 6 of 6 on day 10

SMILES: O=C1C(=O)c2cccnc2-c2ncccc21
- T/C (dose: 10.0 mg/kg/injection, schedule: Q04DX003 (ip), vehicle: Klucel (hydroxypropylcellulose) (HPC)): 133 % of control
- survivor count (dose: 20.0 mg/kg/injection, schedule: Q04DX003 (ip), vehicle: Klucel (hydroxypropylcellulose) (HPC)): 0 of 6 on day 10
- survivor count (dose: 40.0 mg/kg/injection, schedule: Q04DX003 (ip), vehicle: Klucel (hydroxypropylcellulose) (HPC)): 0 of 6 on day 10

SMILES: Cc1c(O)/c(=C\O)c2nc3c(=O)ccc(C(=O)NCCN(C)C)c3[nH]c2c1=O
- survivor count (dose: 240.0 mg/kg/injection, schedule: Q04DX003 (ip), vehicle: water): 2 of 6 on day 10
- T/C [6]: 148 % of control [5 of 6 alive on day 10]
- survivor count [6]: 1 of 6 on day 10 and 2 of 6 on day 10
- survivor count (dose: 667.0 mg/kg/injection, schedule: Q04DX003 (ip), vehicle: water): 0 of 6 on day 10

SMILES: NNC(=O)c1ccncc1
- T/C (dose: 75.0 mg/kg/injection, schedule: Q04DX003 (ip), vehicle: saline): 128 % of control
- survivor count (dose: 150.0 mg/kg/injection, schedule: Q04DX003 (ip), vehicle: saline): 5 of 6 on day 10
- survivor count (dose: 300.0 mg/kg/injection, schedule: Q04DX003 (ip), vehicle: saline): 1 of 6 on day 10

SMILES: COc1ccc2c(c1)-c1nn(CCCN(C)C)c3ccc([N+](=O)[O-])c(c13)N2
- T/C (dose: 29.7 mg/kg/injection, schedule: Q04DX003 (ip), vehicle: water): 127 % of control
- T/C (dose: 29.7 mg/kg/injection, schedule: Q04HX006 (ip), vehicle: water): 129 % of control
- T/C (dose: 66.7 mg/kg/injection, schedule: Q04DX003 (ip), vehicle: water): 132 % of control
- survivor count (dose: 66.7 mg/kg/injection, schedule: Q04HX006 (ip), vehicle: water): 5 of 6 on day 10
- T/C [7]: 125 % of control
- survivor count [7]: 1 of 6 on day 10 and 6 of 6 on day 10
- survivor count (dose: 166.66 mg/kg/injection, schedule: Q04DX003 (ip), vehicle: water): 0 of 6 on day 10 and 2 of 6 on day 10

SMILES: COc1c2c(c(O)c3c4c(c(C)cc13)C1OC3(C(OC)OC5CC(C)(O)C(OC6CC(C)(O)C(O)C(C)O6)C(C)O5)OC1C(OC)(O4)C31CO1)C(=O)C(O)CC2OC1CC(C)(O)C(OC(C)=O)C(C)O1 (stereo unspecified)
- survivor count (dose: 100.0 micrograms/kg/injection, schedule: Q04DX003 (ip), vehicle: saline): 1 of 6 on day 10
- survivor count (dose: 200.0 micrograms/kg/injection, schedule: Q04DX003 (ip), vehicle: saline): 0 of 6 on day 10

SMILES: NC(CCC(=O)NC(CS)C(=O)NCC(=O)O)C(=O)O (stereo unspecified)
- T/C (dose: 1200.0 mg/kg/injection, schedule: Q04DX003 (ip), vehicle: saline): 130 % of control
- survivor count (dose: 2000.0 mg/kg/injection, schedule: Q04DX003 (ip), vehicle: saline): 5 of 6 on day 10
